In this experiment the target is T1, Flag-ACOX2 (acyl-CoA oxidase 2) (UniProt Q99424).
T1 sequence: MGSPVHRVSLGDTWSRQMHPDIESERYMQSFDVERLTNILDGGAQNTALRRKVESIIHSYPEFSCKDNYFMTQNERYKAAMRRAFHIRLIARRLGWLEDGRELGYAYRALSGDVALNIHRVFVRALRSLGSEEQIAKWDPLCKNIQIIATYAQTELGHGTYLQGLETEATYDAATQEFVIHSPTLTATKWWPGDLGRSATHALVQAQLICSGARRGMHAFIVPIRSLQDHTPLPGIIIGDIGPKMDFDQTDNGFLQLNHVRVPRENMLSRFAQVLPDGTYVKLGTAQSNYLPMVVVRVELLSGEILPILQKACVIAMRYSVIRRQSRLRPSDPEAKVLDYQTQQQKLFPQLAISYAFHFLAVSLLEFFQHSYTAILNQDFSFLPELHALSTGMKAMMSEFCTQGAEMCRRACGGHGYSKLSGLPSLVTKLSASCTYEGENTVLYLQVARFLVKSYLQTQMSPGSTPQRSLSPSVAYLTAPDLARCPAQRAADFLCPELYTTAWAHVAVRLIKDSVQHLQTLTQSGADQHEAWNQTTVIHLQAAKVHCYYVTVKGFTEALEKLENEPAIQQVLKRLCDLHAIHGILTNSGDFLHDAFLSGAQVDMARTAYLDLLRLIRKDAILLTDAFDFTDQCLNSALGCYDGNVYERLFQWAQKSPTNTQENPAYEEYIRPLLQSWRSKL
The experiment is described as follows: co-IP; Flag-ACOX2 with MRE11, RAD50 or NBS1, with or without ACOX2 overexpression (Fig. S3A); cells not given.

The chains behind the UniProt entries cited, without tags or fusion partners.
UniProt Q92878: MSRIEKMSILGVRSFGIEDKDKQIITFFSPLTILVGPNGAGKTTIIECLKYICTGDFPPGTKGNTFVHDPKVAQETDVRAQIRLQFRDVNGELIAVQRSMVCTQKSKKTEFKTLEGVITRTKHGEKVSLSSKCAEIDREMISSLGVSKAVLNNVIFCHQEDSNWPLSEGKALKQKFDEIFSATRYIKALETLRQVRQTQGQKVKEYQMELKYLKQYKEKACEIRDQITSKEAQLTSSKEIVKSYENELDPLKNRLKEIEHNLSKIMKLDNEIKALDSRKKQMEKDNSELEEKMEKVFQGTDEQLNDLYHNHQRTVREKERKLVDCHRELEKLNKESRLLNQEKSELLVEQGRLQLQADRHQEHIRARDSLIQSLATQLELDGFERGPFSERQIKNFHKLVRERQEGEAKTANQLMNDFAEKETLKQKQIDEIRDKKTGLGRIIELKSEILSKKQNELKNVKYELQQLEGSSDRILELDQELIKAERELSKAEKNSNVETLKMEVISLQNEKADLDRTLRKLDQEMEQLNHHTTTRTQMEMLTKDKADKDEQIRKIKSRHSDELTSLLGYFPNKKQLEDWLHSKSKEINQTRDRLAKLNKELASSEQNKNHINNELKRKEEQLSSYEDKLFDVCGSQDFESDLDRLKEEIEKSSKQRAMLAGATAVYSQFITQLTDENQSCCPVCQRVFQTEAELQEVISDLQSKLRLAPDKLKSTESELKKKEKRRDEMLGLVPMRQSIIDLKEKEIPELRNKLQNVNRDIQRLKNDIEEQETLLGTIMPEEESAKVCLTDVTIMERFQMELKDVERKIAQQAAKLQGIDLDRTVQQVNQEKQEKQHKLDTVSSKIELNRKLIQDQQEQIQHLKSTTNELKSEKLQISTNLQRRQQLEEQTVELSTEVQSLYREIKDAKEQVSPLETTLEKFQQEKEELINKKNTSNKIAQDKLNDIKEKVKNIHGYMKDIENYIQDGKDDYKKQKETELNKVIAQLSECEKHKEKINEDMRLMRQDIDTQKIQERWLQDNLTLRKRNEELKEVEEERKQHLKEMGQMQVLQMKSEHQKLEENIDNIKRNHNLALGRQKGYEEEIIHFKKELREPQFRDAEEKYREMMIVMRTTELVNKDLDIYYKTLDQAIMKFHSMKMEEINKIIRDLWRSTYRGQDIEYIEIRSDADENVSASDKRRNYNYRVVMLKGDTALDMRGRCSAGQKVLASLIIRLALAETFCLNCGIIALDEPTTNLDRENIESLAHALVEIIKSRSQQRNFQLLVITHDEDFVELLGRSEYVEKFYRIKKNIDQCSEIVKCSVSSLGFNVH
UniProt O60934: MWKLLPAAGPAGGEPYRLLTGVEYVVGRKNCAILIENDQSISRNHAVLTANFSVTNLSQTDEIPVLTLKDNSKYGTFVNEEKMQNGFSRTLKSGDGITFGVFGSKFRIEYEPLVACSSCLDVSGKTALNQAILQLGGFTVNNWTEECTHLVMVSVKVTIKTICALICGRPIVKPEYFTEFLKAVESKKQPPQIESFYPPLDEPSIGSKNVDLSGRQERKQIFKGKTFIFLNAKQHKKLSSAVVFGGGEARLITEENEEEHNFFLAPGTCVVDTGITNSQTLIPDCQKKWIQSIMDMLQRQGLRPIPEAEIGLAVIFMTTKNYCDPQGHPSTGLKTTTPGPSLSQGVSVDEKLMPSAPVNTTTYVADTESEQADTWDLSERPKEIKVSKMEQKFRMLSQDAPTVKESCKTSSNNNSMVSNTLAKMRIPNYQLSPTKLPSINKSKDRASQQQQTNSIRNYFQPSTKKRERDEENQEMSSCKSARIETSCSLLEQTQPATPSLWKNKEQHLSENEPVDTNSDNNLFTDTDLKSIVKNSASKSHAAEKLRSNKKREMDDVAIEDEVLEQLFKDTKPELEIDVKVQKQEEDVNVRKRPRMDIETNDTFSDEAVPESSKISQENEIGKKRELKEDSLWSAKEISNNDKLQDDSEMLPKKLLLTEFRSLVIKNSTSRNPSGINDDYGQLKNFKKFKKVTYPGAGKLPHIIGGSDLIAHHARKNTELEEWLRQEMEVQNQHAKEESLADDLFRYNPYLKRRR

Results are given in words; binding and its absence hold for the method and conditions named. Binding seen in cells or lysates may run through a third protein. Sequences can lack the tags named with a protein.

Take RAD50 (from UniProt Q92878 1-1312): the binding result is on record as “no binding”.
With NBS1 (from UniProt O60934 1-754), the binding result is reported as “no binding”.

Values taken from article PMC12538886.
